Source: PubChem BioAssay AID652243 (Drosophila RNAi Screening Center, 2013)

Test: 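Fly genes required for human androgen receptor driven transcription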 (primary screen)
Cell system: Drosophila S2R+ cells
Reagent: long dsRNA against Drosophila genes
Duration: 72 h (48 h, then 24 h hormone)
Treatment: synthetic androgen R1881 at 10 nM for 24 h
Measurement: 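Per-well raw luminescence of the androgen-driven firefly reporter and of the Renilla control, two replicates each, without normalisation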
Reading the numbers: firefly reporter light: higher = more light from androgen-responsive reporter; Renilla control light: higher = more constitutive control signal (cell number, transfection)
Active means: 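Across duplicate plates, a knock-down whose log firefly/Renilla ratio shifted a set fold down or up from the GFP/LacZ control mean was a hit; the downward cut appears as both 1.5 and 3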
Meaning of the calls: active = hit: reporter lowered or raised; inactive = no hit
The screen tested about 24,000 reagents; shown is an unselected part of those that have a named target and a result. Over the whole deposit, 246 (1%) got an active call. 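Plates not normalised; calls are printed but the firefly/Renilla ratio behind them is not deposited; fold cut for lowering reported inconsistently.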 Raw values are not corrected between plates. Reagents against one gene are numbered here. Reagent sequences are not shown. The record does not give: the amount of reagent.

Pdxk (Pyridoxal kinase) #1 showed firefly reporter light, replicate 1 = 1.07e5; firefly reporter light, replicate 2 = 77245; Renilla control light, replicate 1 = 1.78e6; Renilla control light, replicate 2 = 1.19e6; inactive.
Silencing of Pdxk (Pyridoxal kinase) #2 resulted in: inactive.
After knock-down of Tfb4 (Transcription factor B4) #1, the screen gave firefly reporter light, replicate 1 = 67797; firefly reporter light, replicate 2 = 73256; Renilla control light, replicate 1 = 6.73e5; Renilla control light, replicate 2 = 6.44e5; inactive.
For Tfb4 (Transcription factor B4) #2, the entry reads firefly reporter light, replicate 1 = 4.52e5; firefly reporter light, replicate 2 = 4.46e5; Renilla control light, replicate 1 = 6.31e5; Renilla control light, replicate 2 = 4.10e5; inactive.
After knock-down of Rhau (RHAU helicase) #1 the results were firefly reporter light, replicate 1 = 1.34e6; firefly reporter light, replicate 2 = 1.13e6; Renilla control light, replicate 1 = 2.04e6; Renilla control light, replicate 2 = 1.78e6; inactive.
Knock-down of Rhau (RHAU helicase) #2 resulted in: firefly reporter light, replicate 1 = 3.74e5; firefly reporter light, replicate 2 = 2.64e5; Renilla control light, replicate 1 = 9.36e5; Renilla control light, replicate 2 = 6.69e5; inactive.
For Gyc88E (Guanylyl cyclase at 88E), the values are firefly reporter light, replicate 1 = 2.27e5; firefly reporter light, replicate 2 = 2.49e5; Renilla control light, replicate 1 = 1.42e6; Renilla control light, replicate 2 = 1.51e6; inactive.
uzip (unzipped) #1 gave firefly reporter light, replicate 1 = 6.70e5; firefly reporter light, replicate 2 = 6.90e5; Renilla control light, replicate 1 = 1.45e6; Renilla control light, replicate 2 = 1.52e6; inactive.
Depletion of uzip (unzipped) #2 gave: firefly reporter light, replicate 1 = 6.22e5; firefly reporter light, replicate 2 = 6.46e5; Renilla control light, replicate 1 = 1.24e6; Renilla control light, replicate 2 = 1.36e6; inactive.
After knock-down of ppk9 (pickpocket 9) #1, the screen gave firefly reporter light, replicate 1 = 3.29e5; firefly reporter light, replicate 2 = 3.28e5; Renilla control light, replicate 1 = 1.88e6; Renilla control light, replicate 2 = 1.78e6; inactive.
After knock-down of ppk9 (pickpocket 9) #2, the screen gave firefly reporter light, replicate 1 = 2.69e5; firefly reporter light, replicate 2 = 3.13e5; Renilla control light, replicate 1 = 1.68e6; Renilla control light, replicate 2 = 1.91e6; inactive.
Silencing of lace resulted in: firefly reporter light, replicate 1 = 6.53e5; firefly reporter light, replicate 2 = 4.72e5; Renilla control light, replicate 1 = 1.23e6; Renilla control light, replicate 2 = 1.47e6; inactive.
Silencing of l(3)80Fj (lethal (3) 80Fj) gave: firefly reporter light, replicate 1 = 1.21e6; firefly reporter light, replicate 2 = 1.08e6; Renilla control light, replicate 1 = 2.40e6; Renilla control light, replicate 2 = 1.96e6; inactive.
CG33772 scored firefly reporter light, replicate 1 = 7.78e5; firefly reporter light, replicate 2 = 5.50e5; Renilla control light, replicate 1 = 1.45e6; Renilla control light, replicate 2 = 9.69e5; inactive.

2 entries from above, ordered by “Renilla control light, replicate 1”, lowest first:
Tfb4 (Transcription factor B4) #2 | firefly reporter light, replicate 1 = 4.52e5; firefly reporter light, replicate 2 = 4.46e5; Renilla control light, replicate 1 = 6.31e5; Renilla control light, replicate 2 = 4.10e5; call = inactive
Tfb4 (Transcription factor B4) #1 | firefly reporter light, replicate 1 = 67797; firefly reporter light, replicate 2 = 73256; Renilla control light, replicate 1 = 6.73e5; Renilla control light, replicate 2 = 6.44e5; call = inactive

Next records follow.
S-Lap4 (Sperm-Leucylaminopeptidase 4) #1 gave firefly reporter light, replicate 1 = 1.67e5; firefly reporter light, replicate 2 = 2.31e5; Renilla control light, replicate 1 = 1.84e6; Renilla control light, replicate 2 = 1.98e6; inactive.
With knock-down of S-Lap4 (Sperm-Leucylaminopeptidase 4) #2, the screen gave firefly reporter light, replicate 1 = 3.10e5; firefly reporter light, replicate 2 = 5.03e5; Renilla control light, replicate 1 = 9.35e5; Renilla control light, replicate 2 = 9.36e5; inactive.
With knock-down of CG14635 #1, the screen gave firefly reporter light, replicate 1 = 3.05e5; firefly reporter light, replicate 2 = 4.07e5; Renilla control light, replicate 1 = 3.11e6; Renilla control light, replicate 2 = 3.37e6; inactive.
Depletion of CG14635 #2 came out at: firefly reporter light, replicate 1 = 3.81e5; firefly reporter light, replicate 2 = 4.08e5; Renilla control light, replicate 1 = 1.01e6; Renilla control light, replicate 2 = 1.36e6; inactive.
CG11085 #1 showed firefly reporter light, replicate 1 = 4.23e5; firefly reporter light, replicate 2 = 4.46e5; Renilla control light, replicate 1 = 3.82e6; Renilla control light, replicate 2 = 3.77e6; inactive.
For CG11085 #2, the values are firefly reporter light, replicate 1 = 4.03e5; firefly reporter light, replicate 2 = 4.18e5; Renilla control light, replicate 1 = 1.23e6; Renilla control light, replicate 2 = 1.32e6; inactive.
For CG11085 #3 the deposit lists firefly reporter light, replicate 1 = 9.10e5; firefly reporter light, replicate 2 = 9.25e5; Renilla control light, replicate 1 = 1.44e6; Renilla control light, replicate 2 = 1.64e6; inactive.
